Measurements as given in the supplement of paper PMC10849652.
The other results are listed elsewhere or left out.

Protein sequences, listed by entry. Tags and fused reporters are not part of them. Lines headed by an entry give the natural chain unless they say otherwise; changes in a name come on top.
UniProt Q8WVK2: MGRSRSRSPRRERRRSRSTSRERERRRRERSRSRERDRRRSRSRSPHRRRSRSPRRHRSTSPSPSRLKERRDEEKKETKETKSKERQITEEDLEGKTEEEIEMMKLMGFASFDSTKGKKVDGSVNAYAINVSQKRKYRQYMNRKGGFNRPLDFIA
UniProt O75643, whole entry, looked up: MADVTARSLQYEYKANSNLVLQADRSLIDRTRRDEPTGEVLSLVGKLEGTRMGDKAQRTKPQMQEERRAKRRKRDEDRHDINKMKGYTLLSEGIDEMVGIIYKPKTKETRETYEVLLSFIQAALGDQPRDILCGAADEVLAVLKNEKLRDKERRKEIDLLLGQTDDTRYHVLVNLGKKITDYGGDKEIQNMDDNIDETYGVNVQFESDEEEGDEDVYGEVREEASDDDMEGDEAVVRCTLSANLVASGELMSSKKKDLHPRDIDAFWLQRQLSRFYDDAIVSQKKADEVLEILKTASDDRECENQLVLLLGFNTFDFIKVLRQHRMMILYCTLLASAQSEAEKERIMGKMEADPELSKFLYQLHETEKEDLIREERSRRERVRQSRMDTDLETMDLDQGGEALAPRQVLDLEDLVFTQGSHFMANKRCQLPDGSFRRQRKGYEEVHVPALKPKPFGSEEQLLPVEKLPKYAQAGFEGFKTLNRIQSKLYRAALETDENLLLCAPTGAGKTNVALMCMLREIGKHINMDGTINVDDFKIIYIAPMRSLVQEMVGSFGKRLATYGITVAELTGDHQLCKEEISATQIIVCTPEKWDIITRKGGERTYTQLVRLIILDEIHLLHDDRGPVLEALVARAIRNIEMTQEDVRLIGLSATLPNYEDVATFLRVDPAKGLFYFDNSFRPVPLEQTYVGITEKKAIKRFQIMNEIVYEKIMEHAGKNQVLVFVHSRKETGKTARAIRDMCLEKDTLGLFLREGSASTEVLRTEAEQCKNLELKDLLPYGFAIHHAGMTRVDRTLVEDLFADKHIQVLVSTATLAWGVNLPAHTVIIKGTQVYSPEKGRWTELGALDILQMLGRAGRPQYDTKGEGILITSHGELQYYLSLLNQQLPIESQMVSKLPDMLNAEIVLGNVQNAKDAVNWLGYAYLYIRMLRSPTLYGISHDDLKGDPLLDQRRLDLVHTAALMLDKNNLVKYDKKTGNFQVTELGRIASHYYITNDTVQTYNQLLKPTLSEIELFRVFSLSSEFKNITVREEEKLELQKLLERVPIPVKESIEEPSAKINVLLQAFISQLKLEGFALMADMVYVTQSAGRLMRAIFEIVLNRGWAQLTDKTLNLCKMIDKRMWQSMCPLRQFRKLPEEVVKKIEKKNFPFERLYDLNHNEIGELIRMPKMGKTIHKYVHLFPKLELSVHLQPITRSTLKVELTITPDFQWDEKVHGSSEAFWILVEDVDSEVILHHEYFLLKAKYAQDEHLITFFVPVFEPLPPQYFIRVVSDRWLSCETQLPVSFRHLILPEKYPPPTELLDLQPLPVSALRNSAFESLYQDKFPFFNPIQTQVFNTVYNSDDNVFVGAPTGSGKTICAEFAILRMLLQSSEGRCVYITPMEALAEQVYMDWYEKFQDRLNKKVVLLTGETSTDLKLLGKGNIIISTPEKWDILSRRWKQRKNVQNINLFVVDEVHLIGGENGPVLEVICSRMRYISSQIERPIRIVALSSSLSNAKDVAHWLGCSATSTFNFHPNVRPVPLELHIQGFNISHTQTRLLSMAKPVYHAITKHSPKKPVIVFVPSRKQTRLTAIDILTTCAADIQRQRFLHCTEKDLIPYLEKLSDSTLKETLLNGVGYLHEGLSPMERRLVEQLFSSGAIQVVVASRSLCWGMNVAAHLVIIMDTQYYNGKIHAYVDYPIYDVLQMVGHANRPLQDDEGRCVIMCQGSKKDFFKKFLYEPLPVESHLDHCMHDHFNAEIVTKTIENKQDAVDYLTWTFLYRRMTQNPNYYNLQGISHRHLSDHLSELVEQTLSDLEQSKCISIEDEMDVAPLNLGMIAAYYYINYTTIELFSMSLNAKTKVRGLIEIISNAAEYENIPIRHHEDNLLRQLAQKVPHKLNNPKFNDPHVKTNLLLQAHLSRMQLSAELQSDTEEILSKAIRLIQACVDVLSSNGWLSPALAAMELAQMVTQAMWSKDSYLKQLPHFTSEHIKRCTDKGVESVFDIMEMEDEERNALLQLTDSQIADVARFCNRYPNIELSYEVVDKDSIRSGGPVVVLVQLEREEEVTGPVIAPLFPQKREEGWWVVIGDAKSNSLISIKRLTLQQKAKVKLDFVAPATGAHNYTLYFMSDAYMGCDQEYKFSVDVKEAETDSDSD
UniProt P62306, whole entry, looked up: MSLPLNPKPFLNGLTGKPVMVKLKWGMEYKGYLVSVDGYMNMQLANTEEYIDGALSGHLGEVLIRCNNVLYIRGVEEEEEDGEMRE
UniProt Q9H0W8: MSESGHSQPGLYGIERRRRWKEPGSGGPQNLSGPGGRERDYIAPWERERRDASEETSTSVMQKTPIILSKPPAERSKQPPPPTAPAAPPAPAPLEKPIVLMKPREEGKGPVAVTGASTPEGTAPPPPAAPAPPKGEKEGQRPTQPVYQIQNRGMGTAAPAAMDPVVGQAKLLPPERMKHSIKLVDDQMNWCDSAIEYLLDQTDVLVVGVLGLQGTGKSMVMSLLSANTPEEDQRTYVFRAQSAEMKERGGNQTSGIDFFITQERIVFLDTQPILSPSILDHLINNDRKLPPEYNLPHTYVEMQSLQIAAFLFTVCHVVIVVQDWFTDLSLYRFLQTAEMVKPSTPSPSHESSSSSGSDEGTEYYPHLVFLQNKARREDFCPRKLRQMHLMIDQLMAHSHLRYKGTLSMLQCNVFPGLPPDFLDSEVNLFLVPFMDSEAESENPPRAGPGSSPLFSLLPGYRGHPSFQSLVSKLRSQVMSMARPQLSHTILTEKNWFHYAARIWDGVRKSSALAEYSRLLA
UniProt Q9H7B4: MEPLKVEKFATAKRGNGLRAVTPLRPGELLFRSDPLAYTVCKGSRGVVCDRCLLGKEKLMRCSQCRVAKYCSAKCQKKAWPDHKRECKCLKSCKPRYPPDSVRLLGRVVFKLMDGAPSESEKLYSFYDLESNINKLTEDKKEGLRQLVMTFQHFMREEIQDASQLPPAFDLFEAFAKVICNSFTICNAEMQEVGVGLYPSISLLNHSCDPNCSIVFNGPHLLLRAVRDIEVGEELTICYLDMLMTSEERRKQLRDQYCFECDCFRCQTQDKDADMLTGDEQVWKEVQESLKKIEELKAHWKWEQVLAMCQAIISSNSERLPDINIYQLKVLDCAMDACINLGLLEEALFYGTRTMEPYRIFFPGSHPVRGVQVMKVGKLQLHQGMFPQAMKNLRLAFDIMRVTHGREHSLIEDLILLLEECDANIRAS
UniProt Q9NRS6: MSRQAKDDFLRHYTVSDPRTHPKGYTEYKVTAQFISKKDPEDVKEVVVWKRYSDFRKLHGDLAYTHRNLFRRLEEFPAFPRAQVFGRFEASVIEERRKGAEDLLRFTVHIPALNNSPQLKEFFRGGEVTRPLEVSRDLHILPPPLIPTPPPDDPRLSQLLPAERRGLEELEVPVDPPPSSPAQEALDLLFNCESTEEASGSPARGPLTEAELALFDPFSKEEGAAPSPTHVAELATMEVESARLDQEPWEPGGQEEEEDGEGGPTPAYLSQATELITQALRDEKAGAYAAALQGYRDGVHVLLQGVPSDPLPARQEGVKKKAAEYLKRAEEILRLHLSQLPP
UniProt Q7Z3B0: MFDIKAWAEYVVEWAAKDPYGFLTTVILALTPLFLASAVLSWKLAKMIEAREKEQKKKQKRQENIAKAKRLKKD
UniProt Q9H3E2: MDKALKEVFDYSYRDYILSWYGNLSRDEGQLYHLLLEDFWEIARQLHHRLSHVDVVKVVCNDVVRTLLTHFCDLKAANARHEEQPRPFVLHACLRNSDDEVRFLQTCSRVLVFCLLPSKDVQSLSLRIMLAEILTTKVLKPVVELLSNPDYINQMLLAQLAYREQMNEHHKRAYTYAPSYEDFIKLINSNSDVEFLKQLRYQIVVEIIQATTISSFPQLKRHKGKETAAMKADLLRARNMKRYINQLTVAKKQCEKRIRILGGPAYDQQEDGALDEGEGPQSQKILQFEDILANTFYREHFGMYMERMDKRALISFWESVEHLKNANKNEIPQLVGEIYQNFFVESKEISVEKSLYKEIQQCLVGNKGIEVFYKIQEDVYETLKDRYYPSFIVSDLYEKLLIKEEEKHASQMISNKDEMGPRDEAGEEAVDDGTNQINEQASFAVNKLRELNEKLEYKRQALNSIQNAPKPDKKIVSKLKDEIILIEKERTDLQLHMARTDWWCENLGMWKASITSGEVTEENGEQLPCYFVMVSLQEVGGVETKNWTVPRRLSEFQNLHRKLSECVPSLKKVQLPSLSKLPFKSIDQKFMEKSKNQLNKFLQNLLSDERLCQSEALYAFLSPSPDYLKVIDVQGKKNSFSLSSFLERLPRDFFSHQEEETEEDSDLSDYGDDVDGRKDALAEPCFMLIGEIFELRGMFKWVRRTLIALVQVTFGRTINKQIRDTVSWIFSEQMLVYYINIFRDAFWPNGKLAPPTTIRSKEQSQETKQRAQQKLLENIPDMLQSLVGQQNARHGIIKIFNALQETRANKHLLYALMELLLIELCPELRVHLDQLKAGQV
UniProt Q9Y5W8: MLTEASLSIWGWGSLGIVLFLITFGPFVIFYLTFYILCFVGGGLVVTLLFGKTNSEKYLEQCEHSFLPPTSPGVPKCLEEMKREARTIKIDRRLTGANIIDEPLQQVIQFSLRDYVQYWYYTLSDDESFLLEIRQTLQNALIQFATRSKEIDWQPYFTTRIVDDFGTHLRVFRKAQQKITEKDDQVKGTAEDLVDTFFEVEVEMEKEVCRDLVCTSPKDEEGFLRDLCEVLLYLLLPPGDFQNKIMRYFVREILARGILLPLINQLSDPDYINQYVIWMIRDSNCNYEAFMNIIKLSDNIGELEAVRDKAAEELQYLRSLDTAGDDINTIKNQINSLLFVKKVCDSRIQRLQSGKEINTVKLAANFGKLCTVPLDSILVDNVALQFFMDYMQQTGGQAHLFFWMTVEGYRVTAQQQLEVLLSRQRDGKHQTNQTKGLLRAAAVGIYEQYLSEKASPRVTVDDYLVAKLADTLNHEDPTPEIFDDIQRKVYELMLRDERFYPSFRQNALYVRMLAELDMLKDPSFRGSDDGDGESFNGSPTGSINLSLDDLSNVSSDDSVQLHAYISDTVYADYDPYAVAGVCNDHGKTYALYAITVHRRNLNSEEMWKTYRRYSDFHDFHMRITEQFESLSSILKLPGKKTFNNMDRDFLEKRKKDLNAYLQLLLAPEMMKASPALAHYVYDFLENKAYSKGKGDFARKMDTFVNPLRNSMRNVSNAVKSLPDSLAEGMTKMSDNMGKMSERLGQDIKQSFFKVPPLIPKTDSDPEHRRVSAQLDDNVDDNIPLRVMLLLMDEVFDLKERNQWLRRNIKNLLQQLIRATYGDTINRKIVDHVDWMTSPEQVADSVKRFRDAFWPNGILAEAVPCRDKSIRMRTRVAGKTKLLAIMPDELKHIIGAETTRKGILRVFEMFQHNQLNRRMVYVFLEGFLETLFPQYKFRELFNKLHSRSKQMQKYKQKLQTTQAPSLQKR
UniProt Q0VAQ4: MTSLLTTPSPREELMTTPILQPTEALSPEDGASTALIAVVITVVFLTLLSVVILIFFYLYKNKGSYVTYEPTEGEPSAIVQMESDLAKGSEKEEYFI
UniProt Q8N5G0: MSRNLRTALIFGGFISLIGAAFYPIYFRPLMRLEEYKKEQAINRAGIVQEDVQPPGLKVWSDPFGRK
UniProt Q9H4I9: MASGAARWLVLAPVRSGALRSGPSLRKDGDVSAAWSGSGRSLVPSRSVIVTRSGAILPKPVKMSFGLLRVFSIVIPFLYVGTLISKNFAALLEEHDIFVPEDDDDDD
UniProt Q9NRH2: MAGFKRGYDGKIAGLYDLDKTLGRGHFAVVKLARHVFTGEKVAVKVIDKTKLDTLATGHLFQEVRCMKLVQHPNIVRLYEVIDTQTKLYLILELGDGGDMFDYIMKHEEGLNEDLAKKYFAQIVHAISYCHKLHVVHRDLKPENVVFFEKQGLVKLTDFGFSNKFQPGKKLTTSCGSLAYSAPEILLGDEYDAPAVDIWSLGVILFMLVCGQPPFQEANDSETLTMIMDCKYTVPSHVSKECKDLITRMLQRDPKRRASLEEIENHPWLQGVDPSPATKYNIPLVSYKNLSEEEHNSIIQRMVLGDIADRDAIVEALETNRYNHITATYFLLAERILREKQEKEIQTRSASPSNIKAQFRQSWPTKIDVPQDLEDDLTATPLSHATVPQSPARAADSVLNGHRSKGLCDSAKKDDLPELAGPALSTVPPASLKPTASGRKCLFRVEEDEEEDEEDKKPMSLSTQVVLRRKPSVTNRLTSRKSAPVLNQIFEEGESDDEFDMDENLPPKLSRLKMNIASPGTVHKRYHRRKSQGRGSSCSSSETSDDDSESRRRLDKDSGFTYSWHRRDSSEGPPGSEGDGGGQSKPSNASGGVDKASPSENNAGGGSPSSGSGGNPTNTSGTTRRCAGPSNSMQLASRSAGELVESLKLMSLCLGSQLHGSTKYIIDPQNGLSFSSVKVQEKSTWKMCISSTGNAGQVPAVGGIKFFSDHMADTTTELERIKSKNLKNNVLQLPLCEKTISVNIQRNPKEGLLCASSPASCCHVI

Assays:
Test in all cases: log2 fold change, soluble protein after heating vs DMSO (PISA); higher = thermal stabilisation; K562 cells, 10 uM, 30 min; active = over 0.2 and 3.5 SD of the protein, either way, in both replicates (recomputed)
[1] = compound: CC1=C(C=C(C=C1)NC(=O)C2=CC(=CC=C2)C(C)(C)C#N)NC3=CC4=C(C=C3)N=CN(C4=O)C
Method in brief: (§1)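 Values are thermal stability changes relative to control samples and are taken from duplicates. They are stated as log2 fold changes. Before quantification by TMTpro 16plex LC-MS/MS with equalised channel sums, K562 cells at 2×10^6 cells/mL were treated with 10 μM compound for 30 min, heated in aliquots for 3 min across 48°C-58°C, pooled, extracted in PBS with 0.5% NP-40 at 4°C, and centrifuged at 21,000xg for 90 min to give the soluble supernatant.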

[2] = compound: CC1=C(C=C(C=C1)NC(=O)C2=CC(=CC=C2)N(C)C)NC(=O)C3=CC=C(C=C3)O
Method in brief: as §1

[3] = compound: CC1=CC=C(C=C1)SC2=C3C=C(SC3=CN=C2)C(=O)N
Method in brief: as §1

[4] = compound: CC1=NC(=CC=C1)C2=C(N=C(N2)C(C)(C)C)C3=CC4=NC=CN=C4C=C3
Method in brief: as §1

[5] = compound: CCCCN(Cc1ccc(C(=O)NO)cc1)C(=O)Nc1ccccc1 [Nexturastat A]
Method in brief: as §1

[6] = compound: CCCS(=O)(=O)Nc1ccc(F)c(C(=O)c2c[nH]c3ncc(-c4ccc(Cl)cc4)cc23)c1F [vemurafenib]
Method in brief: as §1

[7] = compound: CCCS(=O)(=O)Nc1ccc(F)c(C(=O)c2c[nH]c3ncc(Cl)cc23)c1F
Method in brief: as §1

[8] = compound: CCCc1cc(C)[nH]c(=O)c1CNC(=O)c1cc(-c2ccnc(N3CCN(C)CC3)c2)cc2c1cnn2C(C)C
Method in brief: as §1

[9] = compound: CCN(CC)Cc1ccc2cc(COC(=O)Nc3ccc(C(=O)NO)cc3)ccc2c1 [givinostat]
Method in brief: as §1

[10] = compound: CCN(CCCOc1ccc2c(Nc3cc(CC(=O)Nc4cccc(F)c4)[nH]n3)ncnc2c1)CCOP(=O)(O)O [barasertib]
Method in brief: as §1

Measured: log2 fold change

SNRNP27 (UniProt Q8WVK2)
inactive: [1] -0.015 | [2] -0.006 | [3] -0.008 | [4] 0.007 | [5] -0.02 | [6] -0.031 | [7] -0.021 | [8] -0.361 | [9] -0.032 | [10] -0.039

SLFN14 (UniProt P0C7P3)
inactive: [1] -0.237 | [2] -0.222 | [3] -0.143 | [4] -0.477 | [5] -0.098 | [6] -0.533 | [7] -0.126 | [8] 0.054 | [10] 0.051

SMC1A (UniProt Q14683)
inactive: [1] -0.03 | [2] -0.008 | [3] -0.008 | [4] 0.018 | [5] 0.016 | [6] 0.028 | [7] 0.041 | [8] -0.014 | [9] 0.084 | [10] 0.007

SMIM8 (UniProt Q96KF7)
inactive: [1] 0.026 | [2] -0.041 | [3] 0.034 | [4] 0.108 | [5] -0.092 | [6] -0.007 | [7] -0.02 | [8] -0.117 | [9] -0.067 | [10] 0

SNRNP200 (UniProt O75643)
inactive: [1] 0.034 | [2] -0.009 | [3] -0.066 | [4] -0.036 | [5] 0.04 | [6] -0.011 | [7] 0 | [8] -0.014 | [9] -0.017 | [10] -0.016

SMARCAD1 isoform 2 (UniProt Q9H4L7)
inactive: [1] 0.028 | [2] -0.072 | [3] -0.026 | [4] 0.064 | [5] -0.028 | [6] 0.192 | [7] 0.101 | [8] 0.035 | [9] 0.127 | [10] 0.089

SMG7 isoform 4 (UniProt Q92540)
inactive: [1] -0.085 | [2] 0.034 | [3] -0.064 | [4] -0.089 | [5] 0.112 | [6] -0.093 | [7] -0.287 | [9] 0.248 | [10] -0.067

SNRPF (UniProt P62306)
inactive: [1] -0.018 | [2] -0.069 | [3] -0.012 | [4] 0.054 | [5] 0.226 | [6] 0.047 | [7] 0.017 | [8] -0.097 | [9] 0.033 | [10] -0.022

SNW1 (UniProt Q13573)
inactive: [1] -0.035 | [2] 0.041 | [3] -0.017 | [4] 0 | [5] 0.074 | [6] -0.04 | [7] -0.017 | [8] -0.045 | [9] -0.041 | [10] -0.02

SNX5 (UniProt Q9Y5X3)
inactive: [1] 0.001 | [2] 0.015 | [3] 0.009 | [4] 0.039 | [5] -0.074 | [6] 0.009 | [7] 0.035 | [8] -0.031 | [9] 0.013 | [10] 0.04

Retrieved one by one from the entries so far (3):
SNRNP200 (UniProt O75643)
inactive: [1] 0.034 | [2] -0.009 | [3] -0.066 | [4] -0.036 | [5] 0.04 | [6] -0.011 | [7] 0 | [8] -0.014 | [9] -0.017 | [10] -0.016

SNX5 (UniProt Q9Y5X3)
inactive: [1] 0.001 | [2] 0.015 | [3] 0.009 | [4] 0.039 | [5] -0.074 | [6] 0.009 | [7] 0.035 | [8] -0.031 | [9] 0.013 | [10] 0.04

SNW1 (UniProt Q13573)
inactive: [1] -0.035 | [2] 0.041 | [3] -0.017 | [4] 0 | [5] 0.074 | [6] -0.04 | [7] -0.017 | [8] -0.045 | [9] -0.041 | [10] -0.02

The listing continues.

SMG9 (UniProt Q9H0W8)
inactive: [1] 0.025 | [3] -0.234 | [4] -0.066 | [5] 0.043 | [6] 0.011 | [7] 0.274 | [8] 0.144 | [9] 0.065 | [10] 0.044

SMPD1 (UniProt P17405)
inactive: [1] 0.218 | [2] 0.321 | [3] 0.088 | [4] -0.023 | [6] 0.157 | [7] 0.067 | [8] -0.534

SMYD3 (UniProt Q9H7B4)
inactive: [1] 0.194 | [2] 0.053 | [3] 0.033 | [5] 0.067 | [6] 0.253 | [7] 0.203 | [8] 0.199 | [9] -0.016 | [10] 0.141

SLC9A8 isoform 2 (UniProt Q9Y2E8)
inactive: [1] 0.033 | [3] 0.098 | [5] -0.07 | [6] 0.058 | [7] 0.005 | [8] 0.031 | [9] -0.001 | [10] 0.01

SMAD5 (UniProt Q99717)
inactive: [1] 0.02 | [2] -0.042 | [4] 0.003 | [5] 0.151 | [6] 0.016 | [8] -0.063 | [9] -0.034 | [10] 0.16

SNTB2 (UniProt Q13425)
inactive: [1] -0.036 | [2] -0.214 | [3] -0.055 | [5] 0.001 | [6] 0.033 | [7] 0.041 | [10] -0.022

SNAP23 isoform 2 (UniProt O00161)
inactive: [1] 0.294 | [3] -0.081 | [4] 0.065 | [5] 0.078 | [6] -0.203 | [7] -0.04 | [8] 0.051 | [9] -0.079

SMCR8 (UniProt Q8TEV9)
inactive: [1] -0.058 | [3] -0.069 | [4] -0.072 | [5] 0.048 | [7] 0.06 | [8] -0.073 | [9] 0.016 | [10] 0.03

SNX15 (UniProt Q9NRS6)
inactive: [1] -0.25 | [2] -0.009 | [3] -0.015 | [4] -0.089 | [6] -0.122 | [7] -0.021 | [8] 0.061 | [10] 0.012

SMIM15 (UniProt Q7Z3B0)
inactive: [1] 0.083 | [4] 0.111 | [5] -0.144 | [6] 0.143 | [8] -0.026 | [9] -0.051 | [10] -0.095

SNAP91 (UniProt O60641)
inactive: [1] 0.009 | [2] 0.045 | [4] 0.091 | [5] 0.02 | [6] -0.003 | [8] -0.003 | [9] 0.024 | [10] 0.061

SNX25 (UniProt Q9H3E2)
inactive: [1] -0.179 | [3] -0.333 | [4] 0.006 | [7] 0.085 | [8] 0.059 | [9] 0.151

SNX13 (UniProt Q9Y5W8)
inactive: [1] -0.038 | [2] -0.015 | [5] -0.029 | [8] -1.15 | [9] 0.253 | [10] 0.064

SMAGP (UniProt Q0VAQ4)
inactive: [1] 0.078 | [3] -0.013 | [5] 0.041 | [7] 0 | [8] 0.263 | [10] -0.095

SMG8 isoform 2 (UniProt Q8ND04)
inactive: [1] -0.074 | [2] 0.183 | [3] 0.038 | [4] -0.058 | [5] 0.227 | [6] -0.168 | [7] -0.006 | [9] 0.152 | [10] 0.094

SPAG9 isoform 4 (UniProt O60271)
inactive: [1] 0.184 | [2] -0.025 | [4] -0.038 | [6] 0.174 | [8] 0.028 | [9] 0.021 | [10] 0.176

SOD3 (UniProt P08294)
inactive: [1] 0.016 | [3] 0.331 | [6] 0.005 | [7] -0.08 | [8] -0.306

SMIM20 isoform 2 (UniProt Q8N5G0)
inactive: [1] 0.01 | [2] 0.008 | [3] -0.052 | [5] 0.006 | [6] 0.148 | [7] -0.059 | [8] -0.024 | [9] -0.102 | [10] -0.026

SON isoform 9 (UniProt P18583)
inactive: [1] 0.01 | [2] 0.146 | [3] -0.103 | [4] -0.051 | [5] -0.055 | [6] 0.002 | [7] 0.101 | [9] 0.244 | [10] -0.033

SOX5 (UniProt P35711)
inactive: [1] -0.125 | [2] 0.004 | [3] -0.144 | [4] 0.02 | [6] -0.05 | [7] -0.063 | [8] 0.042 | [9] 0.013 | [10] -0.119

SMIM13 (UniProt P0DJ93)
inactive: [1] -0.132 | [2] -0.119 | [3] 0.123 | [7] 0.124 | [8] -0.021 | [10] 0.073

SMDT1 (UniProt Q9H4I9)
inactive: [1] 0.137 | [4] 0.033 | [5] -0.015 | [6] 0.037 | [8] -0.127 | [10] -0.021

SNRK (UniProt Q9NRH2)
inactive: [1] -0.029 | [3] 0.066 | [4] 0.225 | [7] 0.07
